# Results: patent US7803571B2, “Method for identifying IRS inhibitors or agonists” (Sanfoi-Aventis Deutschland GmbH, priority 2003, dated 2010)
# The chains behind the UniProt entries cited, without tags or fusion partners.
# UniProt P23727, whole entry: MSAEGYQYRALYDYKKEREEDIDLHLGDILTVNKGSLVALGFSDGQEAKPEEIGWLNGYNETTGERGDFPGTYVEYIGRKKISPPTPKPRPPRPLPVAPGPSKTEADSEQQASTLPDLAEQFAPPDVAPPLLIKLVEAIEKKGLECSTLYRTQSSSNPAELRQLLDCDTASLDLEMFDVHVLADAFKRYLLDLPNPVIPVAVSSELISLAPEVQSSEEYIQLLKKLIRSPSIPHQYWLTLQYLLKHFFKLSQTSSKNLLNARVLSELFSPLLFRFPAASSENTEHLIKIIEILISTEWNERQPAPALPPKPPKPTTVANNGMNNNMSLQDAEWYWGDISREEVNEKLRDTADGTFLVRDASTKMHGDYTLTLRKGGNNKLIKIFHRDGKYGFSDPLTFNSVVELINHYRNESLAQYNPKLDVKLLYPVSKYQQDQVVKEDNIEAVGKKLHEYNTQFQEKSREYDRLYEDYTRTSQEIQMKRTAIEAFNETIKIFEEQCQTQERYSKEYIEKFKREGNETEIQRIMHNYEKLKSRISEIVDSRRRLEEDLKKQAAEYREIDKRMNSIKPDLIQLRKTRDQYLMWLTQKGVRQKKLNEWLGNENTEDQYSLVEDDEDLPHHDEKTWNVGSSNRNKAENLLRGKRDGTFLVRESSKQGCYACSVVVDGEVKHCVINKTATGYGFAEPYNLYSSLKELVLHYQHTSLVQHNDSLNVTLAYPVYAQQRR
# Part of at least one peptide drawing is inferred or uncertain, most often the ends. Square brackets hold non-standard residues; d marks the D form. Peptide text beside a SMILES is read from it. pY = N[C@@H](Cc1ccc(OP(=O)(O)O)cc1)C(=O)O; pS = N[C@@H](COP(=O)(O)O)C(=O)O
# Molecular target: T1, p85α (Bos taurus, UniProt P23727)
# T1 construct: GST (N, cleaved yes); made in house; host or cells: Escherichia coli BL21
# Test: Surface plasmon resonance competition assay: binding of 100 nM p85α to immobilized IRS-1 peptides in the presence of competing soluble peptide
# Parameters: species or system bovine
# Description: The principle of operation of the BIAcore™ biosensor (Biacore, Freiburg, Germany) has been described previously (42). To avoid the interfering dimerization of the GST part of the fusion protein, it was cleaved with thrombin during the purification. Because of the known extremely fast association rates of SH2-domains to phosphopeptides the relative affinities were assessed by competition assay (43). Therefore, a constant concentration of p85α (100 nM) was incubated in running buffer (0.01 M Hepes pH 7.4, 0.15 M NaCl, 3 mM EDTA, 0.005% Surfactant P20 (HBS-EP)) with a variable concentration of the competitor peptide (50 nM-10 μM), which was identical to that bound on the CM5 sensor chip surface. After a 1 h preincubation at room temperature the various mixtures were then injected sequentially at a flow rate of 5 μl/min at 25° C. in HBS-EP buffer. The used peptides DDGYMPMSPGV (SEQ ID NO: 7), DDGpYMPMSPGV, DDGYMPMpSPGV and DDGpYMPMpSPGV, representing the amino acids 605 to 615 of rat IRS-1, were synthesized on an Applied Biosystems model 433 peptide synthesizer. All peptides were immobilized with a concentration of 5 mg/ml in 100 mM […] (NaOH pH 8.5) at 1 μl/min by standard amine coupling procedure as described by the manufacturer. Regeneration after each binding experiment was performed by injection of 6 M guanidine hydrochloride for 2 min. […]
structure (smiles),measurement,value
"CSCC[C@H](NC(=O)[C@@H]1CCCN1C(=O)[C@H](CCSC)NC(=O)[C@H](Cc1ccc(OP(=O)(O)O)cc1)NC(=O)CNC(=O)[C@H](CC(=O)O)NC(=O)[C@@H](N)CC(=O)O)C(=O)N[C@@H](COP(=O)(O)O)C(=O)N1CCC[C@H]1C(=O)NCC(=O)N[C@H](C(=O)O)C(C)C [pY608-pS612, DDGpYMPMpSPGV] (H-DDG[pY]MPM[pS]PGV-OH)",Efficiency of inhibition of p85α binding compared with pY608,better efficiency
